Source: PubChem BioAssay AID720505 (Drosophila RNAi Screening Center, 2013)
Aim: 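Genes needed for store-operated calcium entry in fly cells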 (primary screen). Cells: Drosophila S2R+ cells. Reagent: long dsRNA against Drosophila genes. Conditions: thapsigargin (2 µM) in calcium-free buffer to empty internal stores, then 2 mM calcium added back. Measured: 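Stores emptied by 2 µM thapsigargin without calcium, then 2 mM calcium re-added; fluo-4 fluorescence followed by FLIPR in 384-well plates, per-well averaged endpoint, raw; two screen passes, some wells retested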. Scale: calcium signal: higher = more calcium entry after store depletion. Active means: 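About 1500 genes called as lowering calcium entry, by varying amounts, judged against per-plate control wells with STIM1 as positive and Rho1 as negative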. Calls: active = called as lowering calcium entry; inactive = not called.
The deposit covers about 20,000 reagents; below is an unselected part of those that have a named target and a result. Over the whole deposit, about 2,100 (10%) are marked active. 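Raw plate signals without normalisation; calls rest on control-based scores that were not deposited; replicate 2 separates called from uncalled poorly.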 Names joined by + are all predicted targets of the reagent. Not given: the amount of reagent, the time to read-out.

kek1 (kekkon 1) [DRSC03551] — calcium signal, replicate 1 = 138; calcium signal, replicate 2 = 173; Outcome = inactive
CG8067 [DRSC07065] — calcium signal, replicate 1 = 162; calcium signal, replicate 2 = 205; Outcome = inactive
ncm (nucampholin) [DRSC02179] — calcium signal, replicate 1 = 57.8; calcium signal, replicate 2 = 83.5; Outcome = active
CG7781 [DRSC03068] — calcium signal, replicate 1 = 159; calcium signal, replicate 2 = 175; Outcome = inactive
CG31388 [DRSC15254] — calcium signal, replicate 1 = 82; calcium signal, replicate 2 = 125; Outcome = inactive
CG5756 [DRSC06950] — calcium signal, replicate 1 = 166; calcium signal, replicate 2 = 126; Outcome = inactive
lncRNA:CR40629 (long non-coding RNA:CR40629) [DRSC20959] — calcium signal, replicate 1 = 86.7; calcium signal, replicate 2 = 11707; Outcome = inactive
CG42375 + CG9288 [DRSC16468] — calcium signal, replicate 1 = 67.1; calcium signal, replicate 2 = 101; Outcome = active
Sdb (SAXO downstream of blistered) [DRSC06272] — calcium signal, replicate 1 = 99.8; calcium signal, replicate 2 = 171; Outcome = inactive
Sdb (SAXO downstream of blistered) [DRSC06273] — calcium signal, replicate 1 = 103; calcium signal, replicate 2 = 146; Outcome = inactive
Sdb (SAXO downstream of blistered) [DRSC07155] — calcium signal, replicate 1 = 185; calcium signal, replicate 2 = 184; Outcome = inactive

Looked up above.
Under “Outcome”, kek1 (kekkon 1) [DRSC03551] reads inactive
Result of CG7781 [DRSC03068] under “calcium signal, replicate 2”: 175

The results go on.
tamo [DRSC04446] — calcium signal, replicate 1 = 70; calcium signal, replicate 2 = 165; Outcome = active
CG9632 [DRSC16528] — calcium signal, replicate 1 = 159; calcium signal, replicate 2 = 283; Outcome = inactive
Gr36b (Gustatory receptor 36b) [DRSC21637] — calcium signal, replicate 1 = 171; calcium signal, replicate 2 = 119; Outcome = inactive
CG33178 [DRSC19950] — calcium signal, replicate 1 = 94.5; calcium signal, replicate 2 = 158; Outcome = inactive
ADD1 (ADD domain-containing protein 1) [DRSC07135] — calcium signal, replicate 1 = 177; calcium signal, replicate 2 = 183; Outcome = inactive
Calx (Na/Ca-exchange protein) [DRSC16599] — calcium signal, replicate 1 = 245; calcium signal, replicate 2 = 186; Outcome = inactive
Calx (Na/Ca-exchange protein) [DRSC21850] — calcium signal, replicate 1 = 99.7; calcium signal, replicate 2 = 166; Outcome = inactive
CG12560 [DRSC02174] — calcium signal, replicate 1 = 118; calcium signal, replicate 2 = 134; Outcome = inactive
